These are yes or no findings as the source states them, for the method shown. In cells and extracts the contact can be indirect. Some entries that bind do so weakly or less than the wild type.
molecular target: T1, striatal-enriched protein tyrosine phosphatase, STEP61 (mouse (endogenous in hippocampus)) (UniProt P54830); experiment: co-IP; anti-STEP (23E5) immunoprecipitation from WT mouse hippocampal synaptosomal fractions lysed in co-IP buffer (20 mM Tris-HCl pH 8, NaCl, 0.5% NP-40), overnight at 4 °C, protein A/G plus agarose; blots with selective antibodies; STEP KO lysates as control
T1 sequence: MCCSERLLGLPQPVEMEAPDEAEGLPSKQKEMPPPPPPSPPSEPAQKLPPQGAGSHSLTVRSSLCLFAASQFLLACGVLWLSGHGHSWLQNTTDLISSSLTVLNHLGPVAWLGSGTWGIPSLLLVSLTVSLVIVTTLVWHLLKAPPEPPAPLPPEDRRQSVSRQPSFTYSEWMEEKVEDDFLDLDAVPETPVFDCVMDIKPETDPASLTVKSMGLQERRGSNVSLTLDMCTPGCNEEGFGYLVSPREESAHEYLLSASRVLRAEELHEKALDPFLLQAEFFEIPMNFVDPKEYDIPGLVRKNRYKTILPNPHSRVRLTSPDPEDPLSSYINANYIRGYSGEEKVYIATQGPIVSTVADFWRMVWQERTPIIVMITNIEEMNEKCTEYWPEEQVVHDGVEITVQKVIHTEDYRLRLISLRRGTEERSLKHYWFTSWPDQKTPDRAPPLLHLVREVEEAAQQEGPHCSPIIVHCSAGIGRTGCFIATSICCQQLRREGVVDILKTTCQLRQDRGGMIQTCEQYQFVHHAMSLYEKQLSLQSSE

The chains behind the UniProt entries cited, without tags or fusion partners. Residues count along the entry.
UniProt P39688: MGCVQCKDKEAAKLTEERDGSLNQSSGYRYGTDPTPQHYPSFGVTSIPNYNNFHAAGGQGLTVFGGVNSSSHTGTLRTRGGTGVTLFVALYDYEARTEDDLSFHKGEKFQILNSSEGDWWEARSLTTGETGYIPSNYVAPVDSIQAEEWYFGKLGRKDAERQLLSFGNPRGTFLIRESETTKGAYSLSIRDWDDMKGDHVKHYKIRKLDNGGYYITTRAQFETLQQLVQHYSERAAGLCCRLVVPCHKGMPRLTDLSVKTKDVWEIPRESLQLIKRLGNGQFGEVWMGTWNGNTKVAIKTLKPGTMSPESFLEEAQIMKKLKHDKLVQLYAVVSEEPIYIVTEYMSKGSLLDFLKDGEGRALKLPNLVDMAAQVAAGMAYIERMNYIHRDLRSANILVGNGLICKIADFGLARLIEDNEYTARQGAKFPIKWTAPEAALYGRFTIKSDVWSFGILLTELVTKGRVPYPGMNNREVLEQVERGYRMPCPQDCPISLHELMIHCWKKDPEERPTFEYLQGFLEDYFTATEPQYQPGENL
UniProt Q01097, residues 27-1482: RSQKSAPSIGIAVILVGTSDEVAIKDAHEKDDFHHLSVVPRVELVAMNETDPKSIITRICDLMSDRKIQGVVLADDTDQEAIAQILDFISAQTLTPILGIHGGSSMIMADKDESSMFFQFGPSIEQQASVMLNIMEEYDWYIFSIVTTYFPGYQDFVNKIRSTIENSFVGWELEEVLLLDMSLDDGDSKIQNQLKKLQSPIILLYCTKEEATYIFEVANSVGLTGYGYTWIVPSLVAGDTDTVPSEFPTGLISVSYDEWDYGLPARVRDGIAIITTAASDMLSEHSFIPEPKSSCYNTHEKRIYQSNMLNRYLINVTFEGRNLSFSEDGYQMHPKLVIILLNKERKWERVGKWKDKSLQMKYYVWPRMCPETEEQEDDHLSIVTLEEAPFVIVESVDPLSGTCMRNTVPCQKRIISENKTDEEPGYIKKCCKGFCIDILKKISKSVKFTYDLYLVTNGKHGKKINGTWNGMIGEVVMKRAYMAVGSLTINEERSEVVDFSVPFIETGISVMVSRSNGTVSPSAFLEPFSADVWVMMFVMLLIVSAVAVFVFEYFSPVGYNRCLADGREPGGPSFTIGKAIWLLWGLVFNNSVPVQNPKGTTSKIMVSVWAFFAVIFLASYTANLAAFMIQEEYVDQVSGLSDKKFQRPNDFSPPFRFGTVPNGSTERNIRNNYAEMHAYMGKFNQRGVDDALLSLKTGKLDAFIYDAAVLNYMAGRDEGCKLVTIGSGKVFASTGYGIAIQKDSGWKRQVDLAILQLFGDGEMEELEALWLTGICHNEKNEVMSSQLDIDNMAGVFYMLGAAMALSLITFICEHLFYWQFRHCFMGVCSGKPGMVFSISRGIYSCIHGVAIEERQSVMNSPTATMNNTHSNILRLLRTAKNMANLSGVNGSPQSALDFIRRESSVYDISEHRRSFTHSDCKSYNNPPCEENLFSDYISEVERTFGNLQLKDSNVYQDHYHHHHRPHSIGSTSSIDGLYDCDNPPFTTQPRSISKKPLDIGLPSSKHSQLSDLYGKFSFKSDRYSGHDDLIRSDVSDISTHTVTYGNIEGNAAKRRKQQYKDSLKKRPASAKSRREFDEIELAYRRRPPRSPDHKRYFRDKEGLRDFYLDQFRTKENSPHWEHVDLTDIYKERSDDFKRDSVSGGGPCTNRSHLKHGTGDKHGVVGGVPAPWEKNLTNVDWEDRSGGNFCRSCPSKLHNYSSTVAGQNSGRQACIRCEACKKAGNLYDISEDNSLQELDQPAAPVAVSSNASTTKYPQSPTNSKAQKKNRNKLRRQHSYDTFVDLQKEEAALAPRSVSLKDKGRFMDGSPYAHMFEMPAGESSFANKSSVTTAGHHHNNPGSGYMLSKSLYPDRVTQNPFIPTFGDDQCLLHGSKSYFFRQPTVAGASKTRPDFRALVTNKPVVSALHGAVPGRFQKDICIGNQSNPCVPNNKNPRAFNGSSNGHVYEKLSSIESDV

binding, binds:
NMDA receptor subunit GluN2A (from UniProt P35436 23-1464)
Fyn (from UniProt P39688 1-537) (enzyme)
NMDA receptor subunit GluN2B (from UniProt Q01097 27-1482)

Source: PMC5114553
